Article PMC8546101

By UniProt entry, the sequences of proteins in these tests, tags left out.
UniProt P63104: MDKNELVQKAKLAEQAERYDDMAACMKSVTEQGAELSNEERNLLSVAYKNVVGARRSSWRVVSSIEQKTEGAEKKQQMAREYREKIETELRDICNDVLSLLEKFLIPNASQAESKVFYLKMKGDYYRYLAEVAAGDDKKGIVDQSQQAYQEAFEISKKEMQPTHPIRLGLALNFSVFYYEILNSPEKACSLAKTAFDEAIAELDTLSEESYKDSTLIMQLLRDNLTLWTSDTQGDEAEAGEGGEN
UniProt Q13263: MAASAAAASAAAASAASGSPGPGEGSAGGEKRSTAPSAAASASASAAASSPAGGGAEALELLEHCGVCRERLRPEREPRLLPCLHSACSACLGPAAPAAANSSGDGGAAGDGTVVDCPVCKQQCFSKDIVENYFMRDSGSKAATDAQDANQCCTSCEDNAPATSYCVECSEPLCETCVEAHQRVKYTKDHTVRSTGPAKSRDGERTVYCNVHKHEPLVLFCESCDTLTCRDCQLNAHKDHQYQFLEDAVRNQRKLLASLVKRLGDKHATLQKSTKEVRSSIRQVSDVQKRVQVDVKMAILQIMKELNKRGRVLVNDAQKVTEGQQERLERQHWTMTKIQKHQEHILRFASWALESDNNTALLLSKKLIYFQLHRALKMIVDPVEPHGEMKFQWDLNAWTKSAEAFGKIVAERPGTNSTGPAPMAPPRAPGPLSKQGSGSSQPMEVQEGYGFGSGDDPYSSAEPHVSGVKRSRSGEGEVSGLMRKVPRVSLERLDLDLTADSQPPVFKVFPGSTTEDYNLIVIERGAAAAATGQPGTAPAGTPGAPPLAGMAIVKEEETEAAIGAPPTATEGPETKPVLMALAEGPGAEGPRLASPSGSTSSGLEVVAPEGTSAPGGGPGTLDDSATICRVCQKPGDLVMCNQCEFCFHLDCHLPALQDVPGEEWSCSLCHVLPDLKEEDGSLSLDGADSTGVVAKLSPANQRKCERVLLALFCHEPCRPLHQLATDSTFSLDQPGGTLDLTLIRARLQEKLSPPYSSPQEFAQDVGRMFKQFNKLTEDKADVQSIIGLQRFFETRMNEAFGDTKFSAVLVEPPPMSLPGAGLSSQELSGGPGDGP

Molecular target: 14-3-3 ζ, endogenous in LNCaP cells (human (endogenous in LNCaP)) (UniProt P63104)
Assay: affinity purification with mass spectrometry; RIME (rapid immunoprecipitation mass spectrometry of endogenous proteins on chromatin) on AR and on 14-3-3 ζ in PIM1 over-expressing LNCaP cells; immunoprecipitation as for ChIP-seq, on-bead trypsin/Lys-C digestion, LC-MS; 3 replicates, relative to IgG

| binding | Substance |
| --- | --- |
| binds | TRIM28 (from UniProt Q13263 1-835) |
| binds | hnRNPK (from UniProt P61978 1-463) |

Results are given in words; binding and its absence hold for the method and conditions named. In cells and extracts the contact can be indirect. Here binding means that the protein was enriched with, or labelled near, the bait; the list need not be complete.
